For at least one entry, the source does not settle the construct or the ends of the probe. For some of these results: Weaker means in comparison with the reference protein, sequence or condition of that experiment.

Data set [1] has as its system Rabbit anti-human endothelin receptor A antibody, second extracellular loop (ETA-AB) (Oryctolagus cuniculus). Description: ELONA. Conditions: binding shown with either partner immobilized; 0.1 uM aptamer coating saturating; purified native protein; protein details: Acris Antibodies SP 41222P; label: biotin; single-stranded DNA; variant of thrombin-aptamer ARC183.
Data set [2] concerns Human IgG-3 (Homo sapiens). Description: binding assay. The settings on record: data not shown; highest affinity among human IgG subclasses; 73 nM IgG-3 did not affect beta1-AAB neutralization; purified native protein; single-stranded DNA.
The test system of data set [3] is Human IgG-4 (Homo sapiens). Description: binding assay. Conditions: data not shown; lower affinity than IgG-3, only marginal difference to IgG-2 and IgG-1; purified native protein; single-stranded DNA.
Data set [4] has as its system Human IgG-1 (Homo sapiens). Description: binding assay. The settings on record: data not shown; lowest of IgG subclasses; purified native protein; single-stranded DNA.
The test system of data set [5] is Human IgG-2 (Homo sapiens). Description: binding assay. The settings on record: data not shown; lower affinity than IgG-3; purified native protein; single-stranded DNA.
For data set [6], the system named is Rabbit anti-human endothelin receptor A antibody, second extracellular loop (ETA-AB) (Oryctolagus cuniculus). Kind of data set: pull-down. Conditions: aptamer on NHS-Sepharose column; spiked human serum 50 nM; eluted with 3 M KSCN; purified native protein; protein details: Acris Antibodies SP 41222P; single-stranded DNA.
Data set [7] shares this test system. Description: activity in cells. The settings on record: 100 nM aptamer completely neutralized ETA-AB effect; purified native protein; protein details: Acris Antibodies SP 41222P; single-stranded DNA.

Regarding “GGTTGGTGTGGTTGG [biotinylated thrombin-aptamer]”, in data set [1], the binding result is “binds”.
In the case of “GGTTGGTGTGGTTGG [thrombin-aptamer ARC183]”, the binding result is reported as “binds” in data set [2]; “binds more weakly” in data set [3]; “binds more weakly” in data set [4]; “binds more weakly” in data set [5]; “binds” in data set [6]. In data set [7], the “functional effect of the aptamer” value is on record as “active”.

The record behind these values is patent US20140155466.
